Our source for the binding values is publication PMC7481787.

Chains of the proteins cited; added tags and fusions are not shown.
UniProt Q62318: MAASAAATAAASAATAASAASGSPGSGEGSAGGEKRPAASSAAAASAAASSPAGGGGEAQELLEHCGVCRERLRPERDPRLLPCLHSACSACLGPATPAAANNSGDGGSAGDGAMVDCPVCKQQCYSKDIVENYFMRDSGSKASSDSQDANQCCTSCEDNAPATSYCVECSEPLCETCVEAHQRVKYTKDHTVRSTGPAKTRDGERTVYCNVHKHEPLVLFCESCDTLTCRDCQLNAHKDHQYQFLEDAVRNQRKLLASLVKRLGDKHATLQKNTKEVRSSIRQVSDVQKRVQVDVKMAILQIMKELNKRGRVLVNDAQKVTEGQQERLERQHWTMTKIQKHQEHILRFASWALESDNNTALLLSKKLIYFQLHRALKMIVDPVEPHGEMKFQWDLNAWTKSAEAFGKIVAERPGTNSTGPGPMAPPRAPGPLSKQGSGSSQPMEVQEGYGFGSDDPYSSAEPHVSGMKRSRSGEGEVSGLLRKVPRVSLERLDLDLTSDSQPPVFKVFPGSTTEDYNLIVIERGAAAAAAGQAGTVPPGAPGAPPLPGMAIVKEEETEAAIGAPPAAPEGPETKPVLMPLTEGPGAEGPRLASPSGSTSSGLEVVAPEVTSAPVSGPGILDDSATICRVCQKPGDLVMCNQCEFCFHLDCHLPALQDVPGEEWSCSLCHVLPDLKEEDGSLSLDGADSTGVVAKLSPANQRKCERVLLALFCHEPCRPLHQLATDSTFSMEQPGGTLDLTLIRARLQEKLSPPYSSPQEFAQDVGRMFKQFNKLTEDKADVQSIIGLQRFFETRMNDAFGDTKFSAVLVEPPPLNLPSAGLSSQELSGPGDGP
UniProt Q6PDQ2: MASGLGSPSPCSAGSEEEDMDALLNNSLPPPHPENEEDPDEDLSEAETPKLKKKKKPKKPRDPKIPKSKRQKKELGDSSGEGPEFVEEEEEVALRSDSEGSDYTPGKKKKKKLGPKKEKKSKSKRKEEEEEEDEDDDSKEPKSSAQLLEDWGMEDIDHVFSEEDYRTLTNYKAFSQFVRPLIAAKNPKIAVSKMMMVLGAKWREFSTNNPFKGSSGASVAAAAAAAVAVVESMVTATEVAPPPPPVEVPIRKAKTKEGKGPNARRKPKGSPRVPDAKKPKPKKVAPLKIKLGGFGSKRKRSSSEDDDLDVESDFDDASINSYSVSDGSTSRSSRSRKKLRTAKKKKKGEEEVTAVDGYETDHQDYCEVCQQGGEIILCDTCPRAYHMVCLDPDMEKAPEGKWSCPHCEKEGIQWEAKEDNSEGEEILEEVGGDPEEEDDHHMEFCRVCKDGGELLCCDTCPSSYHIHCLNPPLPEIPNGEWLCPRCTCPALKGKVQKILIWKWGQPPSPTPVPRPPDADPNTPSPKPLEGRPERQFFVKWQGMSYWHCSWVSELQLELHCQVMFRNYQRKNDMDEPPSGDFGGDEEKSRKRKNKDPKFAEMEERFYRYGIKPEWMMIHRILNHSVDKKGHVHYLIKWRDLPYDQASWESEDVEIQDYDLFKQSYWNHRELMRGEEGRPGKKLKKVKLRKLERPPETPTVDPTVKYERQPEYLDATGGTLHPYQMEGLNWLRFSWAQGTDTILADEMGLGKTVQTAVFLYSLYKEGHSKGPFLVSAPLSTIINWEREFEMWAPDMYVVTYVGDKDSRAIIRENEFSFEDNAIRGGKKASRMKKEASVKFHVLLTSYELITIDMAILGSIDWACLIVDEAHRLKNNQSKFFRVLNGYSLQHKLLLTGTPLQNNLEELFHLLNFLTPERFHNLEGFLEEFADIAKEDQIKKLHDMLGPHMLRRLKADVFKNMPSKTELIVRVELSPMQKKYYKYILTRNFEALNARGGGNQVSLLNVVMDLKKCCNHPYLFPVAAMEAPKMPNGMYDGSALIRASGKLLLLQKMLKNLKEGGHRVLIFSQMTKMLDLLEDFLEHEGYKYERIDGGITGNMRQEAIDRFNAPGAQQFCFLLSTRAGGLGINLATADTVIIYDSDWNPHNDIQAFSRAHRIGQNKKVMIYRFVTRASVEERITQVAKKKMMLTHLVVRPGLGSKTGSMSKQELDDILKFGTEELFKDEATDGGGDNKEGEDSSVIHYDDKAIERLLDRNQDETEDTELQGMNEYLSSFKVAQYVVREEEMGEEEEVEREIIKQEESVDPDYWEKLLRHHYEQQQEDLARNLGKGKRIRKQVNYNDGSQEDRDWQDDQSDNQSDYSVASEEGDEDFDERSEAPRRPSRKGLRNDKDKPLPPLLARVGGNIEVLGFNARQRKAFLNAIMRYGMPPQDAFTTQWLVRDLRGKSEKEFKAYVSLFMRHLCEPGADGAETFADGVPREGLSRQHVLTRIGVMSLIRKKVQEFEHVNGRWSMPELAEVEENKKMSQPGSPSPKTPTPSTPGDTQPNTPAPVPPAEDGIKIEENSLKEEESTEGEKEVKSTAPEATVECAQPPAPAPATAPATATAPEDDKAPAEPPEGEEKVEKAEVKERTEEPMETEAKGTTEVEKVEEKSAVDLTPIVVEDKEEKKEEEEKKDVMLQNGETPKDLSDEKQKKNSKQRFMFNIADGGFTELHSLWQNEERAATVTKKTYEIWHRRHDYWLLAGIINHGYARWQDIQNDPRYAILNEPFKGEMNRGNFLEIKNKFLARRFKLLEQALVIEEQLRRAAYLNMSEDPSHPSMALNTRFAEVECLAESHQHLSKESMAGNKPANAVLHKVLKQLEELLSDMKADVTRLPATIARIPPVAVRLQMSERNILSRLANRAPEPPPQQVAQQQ
UniProt P70288: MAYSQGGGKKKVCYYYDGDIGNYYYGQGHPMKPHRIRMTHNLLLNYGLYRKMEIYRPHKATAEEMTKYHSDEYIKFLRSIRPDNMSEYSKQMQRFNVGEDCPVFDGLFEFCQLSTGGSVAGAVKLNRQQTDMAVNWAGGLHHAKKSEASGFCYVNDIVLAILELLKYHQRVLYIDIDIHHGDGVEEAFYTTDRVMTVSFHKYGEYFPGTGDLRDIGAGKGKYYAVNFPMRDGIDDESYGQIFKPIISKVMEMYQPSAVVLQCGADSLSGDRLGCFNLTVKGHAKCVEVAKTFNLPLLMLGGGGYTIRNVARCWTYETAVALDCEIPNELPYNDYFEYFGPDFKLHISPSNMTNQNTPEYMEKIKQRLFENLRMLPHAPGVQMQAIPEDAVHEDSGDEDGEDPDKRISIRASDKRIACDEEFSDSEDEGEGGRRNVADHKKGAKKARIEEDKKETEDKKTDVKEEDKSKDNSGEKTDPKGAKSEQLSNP

No constants are given. Whether binding was seen depends on the method and setting. Binding seen in cells or lysates may run through a third protein. Some results given as binding are weak or reduced against the parent protein; the word gives no strength.

Assay [1] deals with KAP1 (mouse (endogenous in C2C12)) (UniProt Q62318). Put plainly: co-IP; C2C12 cells at 90% confluency lysed in CO-IP buffer (50 mM Tris-HCl, 150 mM NaCl, 1% Triton X-100, protease inhibitor); supernatant rotated with antibody and Protein A-agarose beads at 4 °C for 14 h; western blot. (Immunoblotting shows a protein as a band on a membrane.)
Assay [2] deals with CHD4 (mouse (endogenous in C2C12)) (UniProt Q6PDQ2). Described as above.

Regarding CHD4 (from UniProt Q6PDQ2 1-1915), the binding result in assay [1] is listed as “binds”.
Turning to HDAC2 (from UniProt P70288 1-488), the binding result in assay [2] is on record as “binds”.
